Assay results reported in patent US20080076760A1, “2,3,4,5-TETRAHYDRO-1H-1,5-BENZODIAZEPINE DERIVATIVE AND MEDICINAL COMPOSITION” (priority 2004, published 2008).
Counter-ions that a name gives are not always drawn. Some entries share one result that the patent states for a list of compounds.

Amino acid sequences for entries named in this document (tags omitted).
UniProt P30560, whole entry: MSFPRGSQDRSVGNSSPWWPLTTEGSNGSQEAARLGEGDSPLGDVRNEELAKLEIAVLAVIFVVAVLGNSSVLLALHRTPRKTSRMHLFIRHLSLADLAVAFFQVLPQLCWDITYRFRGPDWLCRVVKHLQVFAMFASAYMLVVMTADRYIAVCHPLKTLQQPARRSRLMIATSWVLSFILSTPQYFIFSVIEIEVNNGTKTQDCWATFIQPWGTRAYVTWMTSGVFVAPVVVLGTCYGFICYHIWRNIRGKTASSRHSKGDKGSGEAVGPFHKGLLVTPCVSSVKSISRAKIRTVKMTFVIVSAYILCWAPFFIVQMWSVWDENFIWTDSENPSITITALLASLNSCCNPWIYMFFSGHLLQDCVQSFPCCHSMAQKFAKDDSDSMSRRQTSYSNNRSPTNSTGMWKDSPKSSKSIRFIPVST

Target: T1, V1a receptor (Rattus norvegicus, UniProt P30560)
T1 construct: from tissue; host or cells: whole animal: awake male Sprague-Dawley rats
Experiment: V1a receptor antagonism in awake rat (oral administration), inhibition of AVP-induced vasopressure
Format: in vivo
Conditions: 1 to 8 hours after administration
Method: One day before evaluation of test compounds, a cannula for blood pressure measurement was inserted into left carotid artery, and a cannula for arginine vasopressin (AVP) administration was inserted into left cervical vein. Blood pressure of artery cannula was measured via pressure transducer during rats were awake. During evaluation of test compounds, elevation breadth of mean blood pressure resulting from intravenous administration of 30 mU/kg of AVP was determined as a vasopressure control, in advance. After test compound was suspended in 0.5% methylcellulose solution and orally administered at 1 to 3 mg/kg, 30 mU/kg of AVP was intravenously administered at fixed time points from 0.5 to 8 hours, and vasopressure value was measured. [Vasopressure inhibition rate (%) at each measurement point after administration]=[(A−B)/A]×100 Wherein, control vasopressure=A, and vasopressure value at each measurement point=B

CCCCN1CCN(CCCOc2cc(C(=O)N3CC[C@H](C)Nc4ccccc43)ccc2-c2ccc3[nH]ccc3c2)CC1 [122 maleate]
vasopressure inhibition rate maintained after 1 to 8 hours since administration: ≥ 50%
